Laboratory results reported in publication PMC6353964.
Positions count from the first letter of the chain named. Names and notes keep the numbering of the source. No constants are given. Whether binding was seen depends on the method and setting. Binding seen in cells or lysates may run through a third protein. Some entries that bind do so weakly or less than the wild type.

The chains behind the UniProt entries cited, without tags or fusion partners.
UniProt Q92754: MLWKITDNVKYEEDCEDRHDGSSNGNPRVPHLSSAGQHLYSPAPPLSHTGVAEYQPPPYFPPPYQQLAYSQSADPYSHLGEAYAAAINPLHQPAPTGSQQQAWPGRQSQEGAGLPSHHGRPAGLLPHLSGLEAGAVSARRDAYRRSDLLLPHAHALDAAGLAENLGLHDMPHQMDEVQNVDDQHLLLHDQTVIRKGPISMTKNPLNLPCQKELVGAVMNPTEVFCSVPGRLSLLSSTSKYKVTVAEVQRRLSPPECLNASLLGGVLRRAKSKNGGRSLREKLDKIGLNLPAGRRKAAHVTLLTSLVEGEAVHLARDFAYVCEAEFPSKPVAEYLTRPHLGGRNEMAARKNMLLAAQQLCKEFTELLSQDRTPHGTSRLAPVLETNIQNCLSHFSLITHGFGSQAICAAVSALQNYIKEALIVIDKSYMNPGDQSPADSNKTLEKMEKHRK

B1: TAp73α (protein, UniProt O15350 1-636)
chain: MAQSTATSPDGGTTFEHLWSSLEPDSTYFDLPQSSRGNNEVVGGTDSSMDVFHLEGMTTSVMAQFNLLSSTMDQMSSRAASASPYTPEHAASVPTHSPYAQPSSTFDTMSPAPVIPSNTDYPGPHHFEVTFQQSSTAKSATWTYSPLLKKLYCQIAKTCPIQIKVSTPPPPGTAIRAMPVYKKAEHVTDVVKRCPNHELGRDFNEGQSAPASHLIRVEGNNLSQYVDDPVTGRQSVVVPYEPPQVGTEFTTILYNFMCNSSCVGGMNRRPILIIITLEMRDGQVLGRRSFEGRICACPGRDRKADEDHYREQQALNESSAKNGAASKRAFKQSPPAVPALGAGVKKRRHGDEDTYYLQVRGRENFEILMKLKESLELMELVPQPLVDSYRQQQQLLQRPSHLQPPSYGPVLSPMNKVHGGMNKLPSVNQLVGQPPPHSSAATPNLGPVGPGMLNNHGHAVPANGEMSSSHSAQSMVSGSHCTPPPPYHADPSLVSFLTGLGCPNCIEYFTSQGLQSIYHLQNLTIEDLGALKIPEQYRMTIWRGLQDLKQGHDYSTAQQLLRSSNAATISIGGSGELQRQRVMEAVHFRVRHTITIPNRGGPGGGPDEWADFGFDLPDCKARKQPIKEEFTEAEIH
B2: TAp73α L377P (protein, UniProt O15350 1-636)
chain: B1 chain with L377P

Biological target: Flag-tagged AP2γ (UniProt Q92754)
Assay: co-IP; Flag-AP2γ captured from H1299 cell lysate (NP40 lysis buffer) on anti-FLAG M2 magnetic beads, 2-3 h at 4 °C; washed in 150 mM NaCl, 50 mM Tris pH 7.5, 1 mM EDTA, 0.5% NP40, 10% glycerol; eluted with Flag peptide; western blot with anti-p53 or anti-p73; for the TDD constructs cells treated with MG132 (1 μM)

Binder | binding
B1 | binds
B2 | binds
